This is one part of the list. The main result of the screen is listed elsewhere. These columns were measured beside it and carry no call. The list favours compounds with an active or inconclusive main result. Potencies come from curve fits of mixed quality, noted in brackets.
Test: qHTS Assay for Lipid Storage Modulators in Drosophila S3 Cells;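 on cell number change: cells counted by Cell Tracker Red CMTPX staining in the red channel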
Conditions: BODIPY lipid droplet fluorescence, 18-24 h; for cell number change: measured here: cell count max response, cells fed with added oleic acid
Method in brief: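 Laser-scanning cytometry quantifies lipid droplet accumulation (500–530 nm total intensity; droplet/cell object ratio) in oleic acid-fed (400 uM added) Drosophila S3 cells treated with a concentration series. 20 uM Triacsin C defined 100% inhibition.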

[1] = measured here: lipid fluorescence (Fed channel) AC50, cells fed with added oleic acid
[2] = measured here: cell number channel AC50, cells fed with added oleic acid

Structure (SMILES)	cell number change [%]	AC50 [1]	AC50 [2]
COc1cccc(NC(=O)C2CCN(S(=O)(=O)c3ccc4c(c3)OCCO4)CC2)c1	23.7	29.1 µM [rising, single point]	
Cc1cc(=O)oc2c(C)c(OCC(=O)N(C)C)ccc12	17.3		
CCC/C(O)=C1\C(=O)CC(c2ccccc2)CC1=NC(C)C(=O)O (configuration not stated)	-16.8		
COc1cccc(C(=O)NCC(=O)N/N=C/c2ccc(OC(=O)c3cccs3)c(OC)c2)c1	-32.6	0.651 µM [falling, full curve]	0.58 µM [falling, partial curve]
CCCNC(=O)COC(=O)c1cc2c(=O)n3ccccc3nc2s1	8.39	9.2 µM [rising, partial curve]	
CCn1c(SCC(=O)Nc2ccc(OC)cc2)nc2c1c(=O)n(C)c(=O)n2C	17.9		
CCOP(=O)(OCC)C(Nc1cccc([N+](=O)[O-])c1)c1ccc(OC)cc1 (configuration not stated)	-19.9		
NC(=O)c1cc([N+](=O)[O-])ccc1NCc1ccccn1	29.6	23.1 µM [rising, partial curve, poor fit]	0.326 µM [rising, full curve, poor fit]
COc1ccc(Cl)cc1-c1nc(SCC(=O)NC2CCS(=O)(=O)C2)n[nH]1 (configuration not stated)	20.4		
N#C/C=C/N1CCC(Cc2ccccc2)CC1	-5.26		
Cc1ccnc(NC(=O)C2CCCN(S(=O)(=O)c3ccc4[nH]c(=O)ccc4c3)C2)c1 (configuration not stated)	-12.2	14.6 µM [falling, partial curve]	
CCCNc1c(N)c(=O)c1=O	-26.1	5.17 µM [falling, full curve]	
Oc1ccccc1C1=NN(c2ccccc2)C(c2ccc(F)cc2)C1 (configuration not stated)	-22.7	0.58 µM [falling, partial curve, poor fit]	
CC(OC(=O)c1cccs1)C(=O)NC1CC1 (configuration not stated)	-1.26		
CC(NC(=O)c1ccco1)C(=O)N1CCN(S(=O)(=O)c2ccccc2C#N)CC1 (configuration not stated)	-0.452	14.6 µM [falling, partial curve]	
N#Cc1ccc(NC(=O)CN2C(=O)NC3(CCCC3)C2=O)cc1	17.1		
O=C(C1CCCCN1S(=O)(=O)c1ccccc1[N+](=O)[O-])N1CCCC1 (configuration not stated)		0.13 µM [falling, full curve, poor fit]	
O=C(Nc1ccc(-c2nc3cccnc3s2)cc1)c1ccc(Br)o1		0.326 µM [rising, full curve]	0.116 µM [rising, full curve, poor fit]
Cc1ccc(C(=O)c2coc3c2C(=O)C(=O)c2ccccc2-3)cc1	-66.9	32.6 µM [falling, partial curve]	23.1 µM [falling, partial curve]

A few values from the list.
Entry of `CCC/C(O)=C1\C(=O)CC(c2ccccc2)CC1=NC(C)C(=O)O` (configuration not stated) under cell number change [%]: -16.8
Entry of `COc1cccc(NC(=O)C2CCN(S(=O)(=O)c3ccc4c(c3)OCCO4)CC2)c1` under cell number change [%]: 23.7

Reference: PubChem BioAssay AID2685 (National Center for Advancing Translational Sciences (NCATS), 2010)
